Source: PMC11948038, “Evolutionary Pro‐To‐Thr Mutation in the Intrinsically Disordered Domain of ANP32 Family Members Modulates Their Target Binding Modes” (Advanced Science, 2025)
Results are given in words; binding and its absence hold for the method and conditions named. Some binding calls cover weakened binding; strength is not graded here.

Amino acid sequences for entries named in this document (tags omitted). Residues count along the entry.
UniProt P99999, residues 2-105: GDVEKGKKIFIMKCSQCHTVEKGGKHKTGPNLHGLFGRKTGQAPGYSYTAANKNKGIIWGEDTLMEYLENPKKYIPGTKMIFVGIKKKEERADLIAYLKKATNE

Target: cytochrome c (UniProt P99999)
Assay: NMR titration; 15N-labeled Cc titrated with ANP32A_(230-249) or ANP32B_(232-251) peptide, up to 1:6 ratio (Cc:peptide); both purified

| Binder | binding |
| --- | --- |
| EEERGQKRKREPEDEGEDDD [ANP32A_(230-249) peptide] | binds |
| EEGGKGEKRKRETDDEGEDD [ANP32B_(232-251) peptide] | binds |
